From patent publication US20120328636A1

Tests used:
HLA-A0201 (human) [1] = experiment: told in words in Example 13; rests on ELISPOT with peptide-pulsed T2 cells, no direct binding assay
HLA-A0201 (human) [2] = experiment: told in words in Example 13; no direct binding assay
HLA-A24 (human) = experiment: told in words in Example 11; no direct binding assay described there

| binding (HLA-A0201 (human) [1]) | Binder | further results |
| --- | --- | --- |
| binds | KLIEIGVQT [peptide of SEQ ID NO:34 (KDR1328)] |  |
|  | VLAMFFWLL [KDR773-2L peptide (SEQ ID NO:54)] | binding (HLA-A0201 (human) [2]): binds |
|  | RFVPDGNRI [peptide of SEQ ID NO:8 (amino acid initiation position KDR169)] | binding (HLA-A24 (human)): binds |
| binds | AVIAMFFWL [peptide of SEQ ID NO:33 (KDR772)] |  |
| binds | AMFFWLLLV [peptide of SEQ ID NO:29 (KDR775)] |  |
| binds | YMISYAGMV [peptide of SEQ ID NO:40 (amino acid initiation position KDR190)] |  |

No constants are given. Whether binding was seen depends on the method and setting. Binding calls can cover weak binding; strength is not graded here.
